The values below come from publication PMC6894925.

By UniProt entry, the sequences of proteins in these tests, tags left out. Residues count along the entry.
UniProt P28824, residues 22-928: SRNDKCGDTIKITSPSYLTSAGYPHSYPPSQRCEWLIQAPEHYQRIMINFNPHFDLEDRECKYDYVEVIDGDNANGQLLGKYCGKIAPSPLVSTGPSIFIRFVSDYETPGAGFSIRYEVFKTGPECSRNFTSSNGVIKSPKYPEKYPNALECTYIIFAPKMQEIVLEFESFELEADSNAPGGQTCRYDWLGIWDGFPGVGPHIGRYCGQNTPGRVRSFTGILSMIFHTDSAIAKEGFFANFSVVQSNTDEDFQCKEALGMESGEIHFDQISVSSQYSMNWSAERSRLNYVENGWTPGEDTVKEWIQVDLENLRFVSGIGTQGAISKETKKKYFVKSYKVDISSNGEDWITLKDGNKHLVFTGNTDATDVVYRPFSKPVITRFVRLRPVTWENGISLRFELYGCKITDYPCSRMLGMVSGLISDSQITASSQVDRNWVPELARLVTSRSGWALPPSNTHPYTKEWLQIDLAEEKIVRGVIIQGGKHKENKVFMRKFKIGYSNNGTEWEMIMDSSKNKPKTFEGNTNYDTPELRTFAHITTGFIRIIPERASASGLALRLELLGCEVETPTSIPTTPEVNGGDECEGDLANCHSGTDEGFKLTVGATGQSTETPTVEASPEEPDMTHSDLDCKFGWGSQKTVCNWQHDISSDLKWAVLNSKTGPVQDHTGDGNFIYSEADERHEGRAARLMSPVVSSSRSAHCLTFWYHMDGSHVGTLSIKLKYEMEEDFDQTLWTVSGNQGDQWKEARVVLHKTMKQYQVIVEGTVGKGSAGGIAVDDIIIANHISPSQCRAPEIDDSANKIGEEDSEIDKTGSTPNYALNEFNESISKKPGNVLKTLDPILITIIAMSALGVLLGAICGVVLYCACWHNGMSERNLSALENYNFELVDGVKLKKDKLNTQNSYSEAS
UniProt Q7ZTM9: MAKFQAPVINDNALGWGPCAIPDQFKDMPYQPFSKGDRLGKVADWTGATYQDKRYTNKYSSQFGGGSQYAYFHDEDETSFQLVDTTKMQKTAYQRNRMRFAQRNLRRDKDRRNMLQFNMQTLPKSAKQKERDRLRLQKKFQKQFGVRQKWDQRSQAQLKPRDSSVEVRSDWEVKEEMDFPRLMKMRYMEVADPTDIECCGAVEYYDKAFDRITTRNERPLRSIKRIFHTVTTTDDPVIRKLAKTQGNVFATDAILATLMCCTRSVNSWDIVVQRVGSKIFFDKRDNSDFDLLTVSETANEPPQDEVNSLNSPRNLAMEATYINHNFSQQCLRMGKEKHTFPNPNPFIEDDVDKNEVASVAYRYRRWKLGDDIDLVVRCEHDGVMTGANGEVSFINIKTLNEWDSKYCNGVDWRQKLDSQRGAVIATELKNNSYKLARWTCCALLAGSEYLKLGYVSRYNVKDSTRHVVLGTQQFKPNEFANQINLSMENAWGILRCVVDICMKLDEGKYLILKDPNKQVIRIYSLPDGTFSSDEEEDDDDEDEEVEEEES

Read-outs that look alike come from different tables or passages of the source. Results are given in words; binding and its absence hold for the method and conditions named. In cells and extracts the contact can be indirect. These calls come from enrichment with a bait or labelling near it, and not all partners need be listed.

The target of assay [1] is Neuropilin-1 (Nrp1), Xenopus laevis (Xenopus laevis (endogenous in embryonic brains and eyes and retinal cultures)) (UniProt P28824). As to the kind of experiment: affinity purification with mass spectrometry; IP of endogenous DCC and Nrp1 from Xenopus laevis embryonic brain and eye lysate with antibody-coupled Dynabeads, LC-MS/MS of eluates, triplicate, LFQ intensities against an IgG control pulldown (Perseus, FDR < 0.05).

The target is the same in assay [2]. Described as above. This is another data set of the same source.

For the molecule “eIF3d, Xenopus laevis (from UniProt Q7ZTM9 1-550)”, the binding result in assay [1] is “binds”.

B1: Staufen1, Xenopus laevis (protein, UniProt Q6GM35 1-708)
chain: MSQAPKSPAAPLPKIQILNKNQHSPLPQPLSIPSTASPLPSENAGRPLQNSALPSPSVTSSGPTAVSSNMANPKEKTPMCLVNELARFNKIQPVYKLLSEQGPAHSKVIPLGRWQDYSLLERVGEERPRQMFTVQLTLGDQYWEAEGTSIKKAQHAAAAKALEGTKYPKPTVRPVRDSITPTVELNALCMKLGRKPIYKPLDPYTGIRSAYNYNMRGGGYPPRYFYPFPVAPILYQVELSVGGQQFHGKGRTRQAAKHDAAARALKSLHHEPLPDKPALNGKAADEENLNKSEISQVFEIALKRNMSVNFEVTKETGPPHMKSFLTKVIVGEFLGEGEGKSKKISKKNAAIAVLEELRKLPPLPTVEKMRPKIKKKTKSIVKLPTSPEYGQGMNPISRLAQIQQAKKGKEPEYILITERGLPRRREFVMQVKVGNHAAEGSGTNKKVAKRNAAENMLEILGFKVPPPPPKPALKTEEKLPVKKPGDGRKVTFYEPGSGEDGANHNKDDEFRMPYHSHQQLPAGILPMVPEVAQAVGVNQGLHTKEFNRVAPNPAKATVTAMIARELLYAGISPTADTILKNNNAAGHVLRGPFTRPSEQLNYLSRVQGLEVEYKDFPKNNKNEFVSLINCSSQPPLISHGIGKDVESCHDMAALNILKLLSELDQQNPEMPRTGNGPMSVCVKPEMESDPLLKPANSNTLGQTLDSTA
Turning to B1, the binding result in assay [2] is “binds”.
